Laboratory results published in patent US20110190365A1, “Insecticidal 4-phenyl-1H-pyrazoles” (Bayer Crop Science AG, priority 2008, published 2011).
Some entries share one result that the patent states for a list of compounds. For some assays here: At least one structure is not confirmed: it was looked up by name or label, or the drawing left a doubt.

Tests used:
Type in all cases: in vivo
Lucilia cuprina larvae = assay: Lucilia cuprina test (LUCICU); conditions: 100 ppm, treated horse meat
Boophilus microplus = Boophilus microplus test (BOOPMI injection); conditions: 20 μg/animal, injection into the abdomen
[1] = system: larvae of the mustard beetle (Phaedon cochleariae); assay: Phaedon cochleariae test (PHAECO spray treatment); conditions: application rate 500 g/ha, Chinese cabbage leaf discs sprayed, after 7 days
Protocol: Phaedon cochleariae Test (PHAECO Spray Treatment)
(§1) Solvent: 78.0 parts by weight of acetone • • 1.5 parts by weight of dimethylformamide Emulsifier: 0.5 part by weight of alkylaryl polyglycol ether
(§2) To produce a suitable preparation of active compound, 1 part by weight of active compound is mixed with the stated amounts of solvent and emulsifier, and the concentrate is diluted with emulsifier-containing water to the desired concentration.
Discs of Chinese cabbage (Brassica pekinensis) are sprayed with an active compound preparation of the desired concentration and, after drying, populated with larvae of the mustard beetle (Phaedon cochleariae).
After 7 days, the effect in % is determined. 100% means that all beetle larvae have been killed; 0% means that none of the beetle larvae have been killed.

[2] = system: caterpillars of the armyworm (Spodoptera frugiperda); assay: Spodoptera frugiperda test (SPODFR spray treatment); conditions: application rate 500 g/ha, maize leaf discs sprayed, after 7 days
Protocol: Spodoptera frugiperda Test (SPODFR Spray Treatment)
as §1, §2
Discs of maize leaves (Zea mays) are sprayed with an active compound preparation of the desired concentration and, after drying, populated with caterpillars of the armyworm (Spodoptera frugiperda).
After 7 days, the effect in % is determined 100% means that all caterpillars have been killed; 0% means that none of the caterpillars have been killed.

[3] = system: greenhouse red spider mite (Tetranychus urticae); assay: Tetranychus test, OP-resistant (TETRUR spray treatment); conditions: bean leaf discs sprayed

SMILES | kill in % (larvae) (Lucilia cuprina larvae) [%] | effect in % (no fertile eggs laid) (Boophilus microplus) [%] | effect in % (beetle larvae killed) [1] [%] | effect in % (caterpillars killed) [2] [%] | effect in % (spider mites killed) ([3]; application rate 500 g/ha) [%] | effect in % (spider mites killed) ([3]; application rate 100 g/ha) [%]
O=C(NCC(F)(F)F)c1ccc(-n2cc(-c3cc(C(F)(F)F)cc(C(F)(F)F)c3)c(C(F)(F)F)n2)cc1C(F)(F)F [I-A-Q2-010] | > 80 | > 80 |  |  |  | 
Cc1cc(-n2nc(C(F)(F)F)c(-c3ccc(Cl)c(Cl)c3)c2N)ccc1C(=O)NC(C)C(F)(F)F (centres unmarked) [I-A-Q2-019] | > 80 | > 80 | > 80 | > 80 |  | 
Nc1c(-c2cc(Cl)cc(Cl)c2)c(C(F)(F)F)nn1-c1ncc(C(=O)NCc2ccccn2)c(C(F)(F)F)n1 [I-A-Q2-020, N-(Pyridin-2-ylmethyl)-2-[5-amino-4-(3,5-dichlorophenyl)-3-trifluoromethylpyrazol-1-yl]-4-trifluoromethylpyrimidine-5-carboxamide] |  |  |  | > 80 | > 80 | 
Cc1cc(-n2nc(C(F)(F)F)c(-c3cc(Cl)cc(Cl)c3)c2Cl)ccc1C(=O)NC(C)C(F)(F)F (centres unmarked) [I-A-Q2-022, 4-[5-Chloro-4-(3,5-dichlorophenyl)-3-trifluoromethylpyrazol-1-yl]-2-methyl-N-(2,2,2-trifluoro-1-methylethyl)benzamide] |  | > 80 |  |  |  | 
Cc1cc(-n2nc(C(F)(F)F)c(-c3cc(Cl)cc(Cl)c3)c2Br)ccc1C(=O)NC(C)C(F)(F)F (centres unmarked) [I-A-Q2-024, 4-[5-Bromo-4-(3,5-dichlorophenyl)-3-trifluoromethylpyrazol-1-yl]-2-methyl-N-(2,2,2-trifluoro-1-mmethylethyl)benzamide] |  | > 80 |  |  |  | 
Cc1cc(-n2nc(C(F)(F)F)c(-c3cc(Cl)cc(Cl)c3)c2I)ccc1C(=O)NC(C)C(F)(F)F (centres unmarked) [I-A-Q2-026] |  | > 80 | > 80 |  |  | 
Cc1cc(-n2nc(C(F)(F)F)c(-c3cc(Cl)cc(Cl)c3)c2N)ccc1C(=O)NCC(F)(F)C(F)F [I-A-Q2-035] |  |  | > 80 | > 80 | > 80 | 
Cc1cc(-n2nc(C(F)(F)F)c(-c3cc(Cl)cc(Cl)c3)c2N)ccc1C(=O)NCCOC(C(F)(F)F)C(F)(F)F [I-A-Q2-048] |  |  | > 80 | > 80 | > 80 | 
COc1ccnc(CNC(=O)c2ccc(-n3nc(C(F)(F)F)c(-c4cc(Cl)cc(Cl)c4)c3N)cc2C)c1 [I-A-Q2-052] |  |  | > 80 | > 80 | > 80 | 
Cc1cc(-n2nc(C(F)(F)F)c(-c3cc(Cl)cc(Cl)c3)c2N)ccc1C(=O)NCc1ccc(C(F)(F)F)nc1 [I-A-Q2-060] |  |  | > 80 | > 80 | > 80 | 
Cc1cc(-n2nc(C(F)(F)F)c(-c3cc(Cl)cc(Cl)c3)c2N)ccc1C(=O)N(C)Cc1ccccn1 [I-A-Q2-110] |  |  | > 80 | > 80 |  | > 80
Nc1c(-c2cc(Cl)cc(Cl)c2)c(C(F)(F)F)nn1-c1ccc(C(=O)NC2CCC2)cc1 [I-A-Q2-141] | > 80 | > 80 | > 80 | > 80 |  | 
Nc1c(-c2cc(Cl)cc(Cl)c2)c(C(F)(F)F)nn1-c1ccc(C(=O)NCC2CC2)cc1 [I-A-Q2-149] | > 80 | > 80 | > 80 |  |  | 
CC(NC(=O)c1ccc(-n2nc(C(F)(F)F)c(-c3cc(Cl)cc(Cl)c3)c2N)cc1)c1ccccc1 (centres unmarked) [I-A-Q2-150] |  | > 80 | > 80 |  |  | 
Nc1c(-c2cc(Cl)cc(Cl)c2)c(C(F)(F)F)nn1-c1ccc(C(=O)NCc2ccccc2)cc1 [I-A-Q2-152] | > 80 | > 80 | > 80 |  |  | 
CNC(=O)c1ccc(-n2nc(C(F)(F)F)c(-c3ccc(Cl)cc3)c2N)cc1 [I-A-Q2-195] |  | > 80 |  |  |  | 
CCCNC(=O)c1ccc(-n2nc(C(F)(F)F)c(-c3cc(Cl)cc(Cl)c3)c2N)cc1C [I-A-Q2-202] |  |  | > 80 | > 80 |  | > 80
Cc1cc(-n2nc(C(F)(F)F)c(-c3cc(Cl)cc(Cl)c3)c2N)ccc1C(=O)NCc1cccc(F)c1 [I-A-Q2-214] |  |  | > 80 |  |  | > 80
Cc1cc(-n2nc(C(F)(F)F)c(-c3cc(Cl)cc(Cl)c3)c2N)ccc1C(=O)NCc1cccnc1 [I-A-Q2-216] |  |  | > 80 |  |  | > 80
Cc1cc(-n2nc(C(F)(F)F)c(-c3cc(Cl)cc(Cl)c3)c2N)ccc1C(=O)NCc1ccc(Cl)nc1 [I-A-Q2-219] |  |  | > 80 | > 80 |  | > 80
Cc1cc(-n2nc(C(F)(F)F)c(-c3cc(Cl)cc(Cl)c3)c2N)ccc1C(=O)NCC1CC1 [I-A-Q2-220] |  |  | > 80 | > 80 |  | > 80
Cc1cc(-n2nc(C(F)(F)F)c(-c3cc(Cl)cc(Cl)c3)c2N)ccc1C(=O)NC1CCCC1 [I-A-Q2-223] |  |  | > 80 | > 80 |  | > 80
COC(CNC(=O)c1ccc(-n2nc(C(F)(F)F)c(-c3cc(Cl)cc(Cl)c3)c2N)cc1C)OC [I-A-Q2-224] |  |  | > 80 | > 80 |  | > 80
Cc1cc(-n2nc(C(F)(F)F)c(-c3cc(Cl)cc(Cl)c3)c2N)ccc1C(=O)NCC(C)C [I-A-Q2-227] |  |  | > 80 | > 80 |  | > 80
Cc1cc(-n2nc(C(F)(F)F)c(-c3cc(Cl)cc(Cl)c3)c2N)ccc1C(=O)NC(C)C [I-A-Q2-229] |  |  | > 80 |  |  | > 80
Cc1cc(-n2nc(C(F)(F)F)c(-c3cc(Cl)cc(Cl)c3)c2N)ccc1C(=O)NC(C)c1cccnc1 (centres unmarked) [I-A-Q2-231] |  |  |  | > 80 |  | > 80
Cc1cc(-n2nc(C(F)(F)F)c(-c3cc(Cl)cc(Cl)c3)c2N)ccc1C(=O)NC1CCC1 [I-A-Q2-239] |  |  | > 80 | > 80 |  | > 80
Cc1cc(-n2nc(C(F)(F)F)c(-c3cc(Cl)cc(Cl)c3)c2N)ccc1C(=O)NC(C)c1ccc(C(F)(F)F)cn1 (centres unmarked) [I-A-Q2-240] |  |  | > 80 | > 80 |  | > 80
Cc1cc(-n2nc(C(F)(F)F)c(-c3cc(Cl)cc(Cl)c3)c2N)ccc1C(=O)NC(C)c1ccc(F)cc1 (centres unmarked) [I-A-Q2-247] |  |  | > 80 |  |  | > 80
Nc1c(-c2ccc(Cl)cc2)c(C(F)(F)C(F)(F)F)nn1-c1ccc(Cl)cn1 [I-A-Q4-058] |  |  | > 80 | > 80 | > 80 | 
